From PubChem BioAssay AID504467 (National Center for Advancing Translational Sciences (NCATS), 2011)
The whole screen tested about 330,000 compounds, of which about 7,700 (2.3%) were called active. Inconclusive results, whose numbers are uncertain, are shown with a selection of clear calls. The call rests on the fitted dose curve; in most records, active means well fitted inhibition curve with a large enough effect; inconclusive means small, poorly fitted or top-dose-only effect, or effect the other way; inactive means flat fitted curve, though single readings scatter. Potencies beside an inconclusive call are fits to weak or partial responses and may not hold up.

Assay: qHTS screen for small molecules that inhibit ELG1-dependent DNA repair in human embryonic kidney (HEK293T) cells expressing luciferase-tagged ELG1; further: nearly all actives have a fitted effect of over 55% in size
Details: HEK293T ELG1-luciferase reporter, luminescence, 16 h, DNA damage induced by 5-fluorouridine; series mostly up to 46.1 µM
Method in brief: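 Quantitative HTS, concentration-response format. 2,000 cells/well co-treated with 5-fluorouridine and compound, 16 hr in 5% CO2 at 37 °C; ONE-Glo luminescence read after 30 min.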
Potency means the concentration at half of the fitted maximal effect.

| Structure (SMILES) | Potency |
| --- | --- |
| COc1ccc(/C=N/Nc2nc(C)nc(N)n2)cc1 | inconclusive: 23.1 µM [activator, single point] |
| CSc1nc(-c2ccccc2)nn1S(=O)(=O)c1ccccc1 | inconclusive: 20.6 µM [activator, single point] |
| O=C(COc1ccccc1Cl)NC(=S)Nc1cccc(NC(=O)c2ccccc2Cl)c1 | inactive |
| CCN(CC)c1ccc(/C=N/NC(=O)c2ccccn2)cc1 | inconclusive: 2.06 µM [activator, full curve] |
| Cc1ccc(-n2c(SCC(=O)Nc3cccc(S(N)(=O)=O)c3)nc3ccccc32)cc1 | inconclusive: 20.6 µM [inhibitor, partial curve, poor fit] |
| COc1cccc(CNC(=O)C2CSC3(C)CCC(=O)N23)c1 (stereo not drawn) | inconclusive: 18.3 µM [activator, single point] |
| Cc1cc(OC(C)C(=O)Nc2cccnc2)ccc1Cl (stereo not drawn) | inactive |
| CCOC(=O)Nc1cc(C(=O)OC)ccc1C | inconclusive: 18.4 µM [activator, partial curve, poor fit] |
| O=C(c1c(Cl)cccc1Cl)N1CCN(c2ncccn2)CC1 | inconclusive: 25.9 µM [inhibitor, single point] |
| OCCC1CN(Cc2cn[nH]c2C2CCCCC2)CCN1C1CCCCC1 (stereo not drawn) | inactive |
| CC(=O)c1ccc(S(=O)(=O)Oc2ccc(C(=O)O)cc2Cl)cc1 | inactive |
| NC(=O)c1c(NC(=O)CN2CCCC2)sc2c1CCCC2 | inconclusive: 25.9 µM [activator, partial curve, poor fit] |
| COc1cc(C(=O)NNC(=O)Cc2cccs2)cc(OC)c1OC | inconclusive: 11.6 µM [activator, partial curve, poor fit] |
| COc1ccc(C2=Nn3c(nnc3-c3ccccc3Cl)SC2)cc1OCC1CC1 | inconclusive: 18.3 µM [inhibitor, partial curve] |
| CC1CCCC(C)N1C(=O)COC(=O)c1cc(-c2cccs2)nn1-c1ccccc1 (stereo not drawn) | inactive |
| CC(C)Cc1nc(SCC(=O)N2CCCC2)c2c(=O)n(C)c(=O)n(C)c2n1 | inactive |
| O=C(Nc1ccccn1)c1sc2cccc(F)c2c1Cl | inconclusive: 1.3 µM [activator, full curve] |
| N/C(=N\OC(=O)Cc1cccs1)c1ccc([N+](=O)[O-])cc1 | inconclusive: 18.4 µM [activator, single point] |
| O=C(CSc1ccc(-c2ccc(Br)cc2)nn1)NC1CCCC1 | inconclusive: 14.6 µM [activator, partial curve, poor fit] |
| Cc1ccc(CN2CCN(Cc3cccc(-n4cccn4)c3)CC2CCO)cc1 (stereo not drawn) | inconclusive: 32.6 µM [inhibitor, single point] |
| Cc1cccc2cc(CN(Cc3cccnc3)C(=O)c3ccccc3F)c(Cl)nc12 | inconclusive: 29.1 µM [inhibitor, single point] |
| CNc1c(NC(=O)C2CCC(C)CC2)c(=O)oc2ccccc12 (stereo not drawn) | inactive |
| O=C(N/N=C/c1ccccc1Cl)c1ccc(F)cc1 | inconclusive: 20.6 µM [activator, partial curve] |

11 structures from above, arranged by count of non-hydrogen atoms, rising.

| Structure (SMILES) | Potency |
| --- | --- |
| CCOC(=O)Nc1cc(C(=O)OC)ccc1C | inconclusive: 18.4 µM [activator, partial curve, poor fit] |
| COc1ccc(/C=N/Nc2nc(C)nc(N)n2)cc1 | inconclusive: 23.1 µM [activator, single point] |
| Cc1cc(OC(C)C(=O)Nc2cccnc2)ccc1Cl (stereo not drawn) | inactive |
| NC(=O)c1c(NC(=O)CN2CCCC2)sc2c1CCCC2 | inconclusive: 25.9 µM [activator, partial curve, poor fit] |
| COc1cccc(CNC(=O)C2CSC3(C)CCC(=O)N23)c1 (stereo not drawn) | inconclusive: 18.3 µM [activator, single point] |
| O=C(CSc1ccc(-c2ccc(Br)cc2)nn1)NC1CCCC1 | inconclusive: 14.6 µM [activator, partial curve, poor fit] |
| COc1cc(C(=O)NNC(=O)Cc2cccs2)cc(OC)c1OC | inconclusive: 11.6 µM [activator, partial curve, poor fit] |
| CC(C)Cc1nc(SCC(=O)N2CCCC2)c2c(=O)n(C)c(=O)n(C)c2n1 | inactive |
| COc1ccc(C2=Nn3c(nnc3-c3ccccc3Cl)SC2)cc1OCC1CC1 | inconclusive: 18.3 µM [inhibitor, partial curve] |
| CC1CCCC(C)N1C(=O)COC(=O)c1cc(-c2cccs2)nn1-c1ccccc1 (stereo not drawn) | inactive |
| Cc1ccc(-n2c(SCC(=O)Nc3cccc(S(N)(=O)=O)c3)nc3ccccc32)cc1 | inconclusive: 20.6 µM [inhibitor, partial curve, poor fit] |

(next part)

| Structure (SMILES) | Potency |
| --- | --- |
| CCOC(=O)c1csc(COc2ccc(OC)cc2)n1 | inconclusive: 2.06 µM [activator, partial curve] |
| CCc1ccc(C(=O)COC(=O)[C@@H](NC(N)=O)[C@@H](C)CC)cc1 | inconclusive: 18.3 µM [activator, single point] |
| COc1ccc(OC)c(/C(C)=N/Nc2ccc(C(=O)O)cc2)c1 | inconclusive: 18.3 µM [activator, partial curve] |
| CC1CCN(C(=O)CN2C(=O)NC3(CCCCCC3)C2=O)CC1 | inactive |
| CC(Sc1nnnn1-c1ccccc1)C(=O)Nc1ccccc1-c1ccccc1 (stereo not drawn) | inconclusive: 11.6 µM [inhibitor, partial curve, poor fit] |
| O=C(NCCc1ccc(O)cc1)c1ccc(Cl)cc1 | inconclusive: 13 µM [activator, partial curve] |
| O=C(CN1CCN(S(=O)(=O)c2ccc(Cl)cc2)CC1)Nc1ccc2c(c1)OCO2 | inactive |
| Cc1cc(F)ccc1S(=O)(=O)Nc1nc2ccccc2nc1Cl | inconclusive: 23.1 µM [inhibitor, single point] |
| Cc1ccc(C(=O)Oc2ccccc2N2C(=O)C3CCC(C)CC3C2=O)cc1 (stereo not drawn) | inactive |
| COc1cccc(-c2cc(=O)c3cc(NC(C)=O)ccc3[nH]2)c1 | inconclusive: 29.1 µM [activator, single point] |
| Cc1cccc(NC(=O)COc2ccc(Br)cc2/C=N/O)c1 | inconclusive: 4.11 µM [activator, full curve] |
| CCC(NS(=O)(=O)c1cccs1)c1ccc(C)cc1 (stereo not drawn) | inactive |
| COc1ccccc1C(=O)NNC(=O)c1ccccc1 | inconclusive: 7.3 µM [activator, partial curve] |
| Cc1cccc(NC(=O)Cc2nc(-c3c[nH]c(C(=O)N4CCCC4)c3)cs2)c1 | inconclusive: 16.4 µM [inhibitor, partial curve] |
| CC(C)COC(=O)C(C#N)c1nc2ccccc2nc1N1CCN(Cc2ccccc2)CC1 (stereo not drawn) | inactive |
| Cc1cc(C)n2nc(C(=O)Nc3ccc4c(c3)OCO4)cc2n1 | inconclusive: 10.3 µM [activator, partial curve] |
| CCOC(=O)c1oc2cccc(OC(C)=O)c2c1C | inconclusive: 7.94 µM [activator, partial curve] |
| Cc1ccc(NC(=O)COc2ccccc2C#N)cc1S(=O)(=O)N1CCCCCC1 | inconclusive: 23.1 µM [inhibitor, single point] |
| Cc1nnc(N/N=C/c2ccccc2O)n1N | inactive |
| O=C(NCc1cccnc1)/C(=C/c1ccc(-c2ccc(Cl)cc2)o1)S(=O)(=O)c1ccccc1 | inconclusive: 11.2 µM [inhibitor, partial curve, poor fit] |
| Cc1c(-c2cccc(NC(=O)c3cccs3)c2)nc2ncccn12 | inconclusive: 23.1 µM [inhibitor, single point] |
| COc1cc(C2C(C#N)=C(N)Oc3c2ccc2ccccc32)ccc1OCC(=O)Nc1ccc(C)cc1 (stereo not drawn) | inconclusive: 16.4 µM [inhibitor, partial curve] |
| Cc1ccc(OCCNC(=O)c2ccc3c(c2)OCO3)cc1 | inconclusive: 16.4 µM [activator, partial curve] |

| Structure (SMILES) | Potency |
| --- | --- |
| C=CC[n+]1c(-c2ccc(Cl)cc2Cl)csc1Nc1ccc(NC(C)=O)cc1 | inactive |
| CCCC(=O)Nc1cccc(NC(=S)NC(=O)C(C)Oc2ccc(Cl)cc2Cl)c1 (stereo not drawn) | active: 20.6 µM |
| Cc1ccc(C2(C)NC(=O)N(CC(=O)NC(=O)NC(C)(C)C)C2=O)cc1 (stereo not drawn) | inactive |
| Cc1cc2cc(CNC(=S)NC3CCCCC3)ccc2n1C | inconclusive: 18.3 µM [inhibitor, single point] |
| C#CCOCCOCCOCCNc1nc(N2CCN(C(=O)C([C@@H](C)O)n3cc([C@@H](N)CCCCN)nn3)CC2)nc(N2CCN(C(=O)[C@H](CCCN=C(N)N)n3cc(C(N)[C@@H](C)CC)nn3)CC2)n1 (stereo partly drawn) | inconclusive: 23.1 µM [activator, single point] |
| Nc1ccc(C(=O)Nc2ccccc2C(=O)O)cc1 | inconclusive: 23.1 µM [activator, partial curve] |
| CCCc1nnc(NC(=O)Cn2c(=O)oc3cc(Br)ccc32)s1 | inconclusive: 32.6 µM [activator, partial curve, poor fit] |
| N#CC1(Cc2ccc(Cl)cc2)c2ccccc2C=CN1C(=O)c1ccccc1 (stereo not drawn) | inactive |
| Cc1ccc(-c2nc(SCC(=O)NCCN3C(=O)CSC3=O)[nH]c2-c2ccc(C)cc2)cc1 | inconclusive: 25.9 µM [inhibitor, single point] |
| COc1cccc(/C=N/Nc2ccccc2C(=O)O)c1O | inconclusive: 4.11 µM [activator, full curve] |
| CCC(=O)Nc1c(C(=O)Nc2ccc3c(c2)OCCO3)oc2ccccc12 | inconclusive: 2.91 µM [activator, full curve] |
| CC(=O)Nc1c(-c2ccc3ccccc3c2)nc2ccccn12 | inconclusive: 23.1 µM [activator, partial curve] |
| O=C(c1ccc2c(c1)OCCCO2)N1CCCCC1 | inconclusive: 10.3 µM [activator, partial curve, poor fit] |
| Cc1ccc(OC(=O)COc2ccccc2C)c(-n2nc3ccccc3n2)c1 | inconclusive: 9.2 µM [activator, partial curve] |
| CCCn1cnc2cc(NCc3ccccc3O)ccc21 | inconclusive: 20.6 µM [activator, single point] |
| Cc1ccc(CSCCNC(=O)/C=C/c2ccc(Cl)cc2)cc1 | inconclusive: 32.6 µM [activator, partial curve, poor fit] |
| CCOc1ccc(NC(=O)CCC(=O)NNC(=O)Nc2cccc(Cl)c2)cc1 | inconclusive: 29.1 µM [activator, single point] |
| CCOC(=O)c1c(C)oc2ccc(O)c(CN3CCCCC3)c12 | inactive |
| N/C(=N\OC(=O)c1ccccc1Cl)c1ccc(Cl)cc1 | inconclusive: 4.11 µM [activator, partial curve] |
| Cc1cc(C)c(S(=O)(=O)NCCn2c(C)cc3ccccc32)c(C)c1 | inconclusive: 29.1 µM [inhibitor, single point] |
| FC(F)(F)c1nc2cc3nc4ccccc4[nH]c3cc2n1 | inconclusive: 18.3 µM [activator, partial curve] |
| CC(=O)Nc1ccn(Cc2c(F)cccc2Cl)n1 | inconclusive: 23.1 µM [activator, partial curve] |

Three compounds already listed, sorted by molar mass, low to high:

| Structure (SMILES) | Potency |
| --- | --- |
| Nc1ccc(C(=O)Nc2ccccc2C(=O)O)cc1 | inconclusive: 23.1 µM [activator, partial curve] |
| CCC(=O)Nc1c(C(=O)Nc2ccc3c(c2)OCCO3)oc2ccccc12 | inconclusive: 2.91 µM [activator, full curve] |
| C=CC[n+]1c(-c2ccc(Cl)cc2Cl)csc1Nc1ccc(NC(C)=O)cc1 | inactive |
